In doi:10.1101/2023.05.22.541649:
These are yes or no findings as the source states them, for the method shown.

Protein sequences, listed by entry. Tags and fused reporters are not part of them. Lines headed by an entry give the natural chain unless they say otherwise; changes in a name come on top. Chains listed by the source or under a name are the forms on record and can include a tag or linker.
GFP-CENP-T^1–242^/3D (Q96BT3, form named): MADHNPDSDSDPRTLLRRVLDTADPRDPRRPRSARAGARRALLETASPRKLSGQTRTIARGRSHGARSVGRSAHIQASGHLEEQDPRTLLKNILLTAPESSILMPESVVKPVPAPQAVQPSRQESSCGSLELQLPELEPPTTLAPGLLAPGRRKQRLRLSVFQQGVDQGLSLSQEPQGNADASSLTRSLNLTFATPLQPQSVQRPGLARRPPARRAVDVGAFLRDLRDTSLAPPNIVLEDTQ

Biological target: GFP-CENP-T^1–242^/3D (human) (UniProt Q96BT3)
Assay: fluorescence intensity of single particles

binding: no binding
Substance: GFP-CENP-T^1–242^/3D (from UniProt Q96BT3 1-242) (domain or fragment)
